Test results: PubChem BioAssay AID588590 (National Center for Advancing Translational Sciences (NCATS), 2011)
Values joined by “and” are separate entries in the source; they are usually repeats but may differ in a detail not shown here. Equal values may be shown once. The whole screen tested about 390,000 compounds, of which about 4,000 (1%) were called active. Inconclusive results, whose numbers are uncertain, are shown with a selection of clear calls. Calls follow the shape of the dose curve; as a rule, active = well fitted inhibition curve with a large enough effect; inconclusive = small, poorly fitted or top-dose-only effect, or another doubt; inactive = no such curve, though single readings can be large or run the other way. Potencies of inconclusive entries are doubtful fits and often do not repeat.

Amino acid sequences for entries named in this document (tags omitted). A change or cut given only in a name is not applied to a line headed by its entry.
UniProt Q9UNA4: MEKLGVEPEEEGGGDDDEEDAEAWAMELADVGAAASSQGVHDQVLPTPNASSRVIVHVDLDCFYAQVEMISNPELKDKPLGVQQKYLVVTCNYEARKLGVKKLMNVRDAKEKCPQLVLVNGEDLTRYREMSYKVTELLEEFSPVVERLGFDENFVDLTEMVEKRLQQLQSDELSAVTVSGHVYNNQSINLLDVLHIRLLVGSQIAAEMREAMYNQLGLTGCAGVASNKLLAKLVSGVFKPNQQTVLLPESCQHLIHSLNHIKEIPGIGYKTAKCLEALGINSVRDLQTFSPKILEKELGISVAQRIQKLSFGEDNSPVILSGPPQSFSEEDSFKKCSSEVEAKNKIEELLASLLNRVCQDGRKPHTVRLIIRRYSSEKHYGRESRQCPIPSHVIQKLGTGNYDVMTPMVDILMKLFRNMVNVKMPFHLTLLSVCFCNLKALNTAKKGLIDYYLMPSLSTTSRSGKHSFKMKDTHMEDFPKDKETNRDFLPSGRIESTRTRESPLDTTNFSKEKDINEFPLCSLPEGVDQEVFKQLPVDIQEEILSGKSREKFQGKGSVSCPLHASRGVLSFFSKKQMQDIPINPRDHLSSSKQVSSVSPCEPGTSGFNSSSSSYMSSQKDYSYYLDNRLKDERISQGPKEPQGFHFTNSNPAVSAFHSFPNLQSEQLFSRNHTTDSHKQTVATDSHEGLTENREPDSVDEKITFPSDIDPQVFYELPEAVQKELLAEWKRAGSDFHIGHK

molecular target: DNA polymerase iota (Homo sapiens) (UniProt Q9UNA4); experiment: qHTS for Inhibitors of Polymerase Iota; conditions: Pol iota fluorescent replication assay, 10 min; series mostly up to 115 µM; activity, negative = inhibition: at the top concentration
Outline: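 Fluorescent replication assay read twice, at 0 min and 10 min after adding 50 nM (final) substrate. Enzyme (10 nM) and compounds were first incubated 15 min at room temperature; enzyme-free buffer wells were negative controls.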
Potency is read from the fitted curve at half-maximal effect.

Row | SMILES | Potency | activity, negative = inhibition
1 | CCN(CCO)c1ncnc2c1sc1nc(C(C)C)c3c(c12)CC(C)(C)OC3 | inconclusive: 100 µM [inhibitor, partial curve, poor fit] | –
2 | CN(C)c1ccc(/C=C/c2cc(/C=C/c3ccc(N(C)C)cc3)c3ccccc3n2)cc1 | inconclusive: 28.2 µM [inhibitor, single point] | –
3 | CCn1c(SCC(=O)Nc2cc(C)on2)nnc1-c1ccc(C)cc1 | inconclusive: 89.1 µM [inhibitor, single point] | –
4 | COc1cccc(C(=O)NC(=S)Nc2ccc(N(C)C)cc2)c1 | – | inactive: 2.02%
5 | CSC(=S)N/N=C(\C)c1ccccc1 | inconclusive: 39.8 µM [inhibitor, single point] | –
6 | COc1ccc(NC(=O)CC2C(=O)N(c3ccc(OC)cc3)C(=O)N2CCC2=CCCCC2)cc1 (stereo not given) | – | inactive: 29.4%
7 | O=C(COc1ccc([N+](=O)[O-])cc1Cl)NCCN1C(=O)CSC1=O | inconclusive: 0.708 µM [inhibitor, full curve, poor fit] | –
8 | Cc1ccc(C)c(Nc2cc(C(=O)NC3CCCC3)c3ccccc3n2)c1 | inconclusive: 25.1 µM [inhibitor, partial curve, poor fit] | –
9 | O=C(NCC1CCCO1)c1nnc(Cc2ccc(F)cc2)o1 (stereo not given) | inconclusive: 39.8 µM [inhibitor, single point] | –
10 | O=C(Cc1ccc(Cl)cc1)Nc1cccc(S(=O)(=O)N2CCCCC2)c1 | inconclusive: 70.8 µM [inhibitor, partial curve, poor fit] | –
11 | Cc1ccc(CNC(=O)c2cc3c(=O)n(Cc4ccco4)ccc3nc2C)cc1 | inconclusive: 10 µM [inhibitor, partial curve, poor fit] | –
12 | Nc1c(C(=O)NCc2ccccc2)nnn1Cc1ccc(F)cc1 | inconclusive: 50.1 µM [inhibitor, partial curve, poor fit] | –
13 | Cc1ccc(-n2c(C)nnc2SCC(=O)Nc2ccccc2)cc1 | inconclusive: 39.8 µM [inhibitor, single point] | –
14 | C(=C\c1ccccc1)/CSc1nnc(-c2ccccn2)n1Cc1ccco1 | inconclusive: 14.1 µM [inhibitor, full curve, poor fit] | –
15 | CCCCCCCCCCCCCCCC[n+]1cccc(C(=O)N(CC)CC)c1 | inconclusive: 35.5 µM [inhibitor, partial curve, poor fit] and inconclusive: 56.2 µM [inhibitor, partial curve, poor fit] | –
16 | Cn1nc(C(F)(F)F)cc1-c1ccc(/C=C(\C#N)C(=O)c2ccccc2)s1 | inconclusive: 5.01 µM [inhibitor, full curve] | –
17 | COc1ccc(C(=O)C2CCN(CC(=O)Nc3ccc(C)cc3)CC2)cc1 | inconclusive: 79.4 µM [inhibitor, partial curve, poor fit] | –
18 | COc1ccc(N=C2C(=O)Nc3ccccc32)cc1 | inconclusive: 20 µM [inhibitor, partial curve, poor fit] | –
19 | CC(OC(=O)c1oc2ccccc2c1COc1ccccc1)C(=O)NC(N)=O (stereo not given) | inconclusive: 89.1 µM [inhibitor, partial curve, poor fit] | –
20 | COc1cc(NC(=O)N2CCNC2=O)cc(C(=O)Nc2cccc(C(F)(F)F)c2)c1 | inconclusive: 79.4 µM [inhibitor, partial curve] | –

One compound at a time, as listed above:
`COc1ccc(NC(=O)CC2C(=O)N(c3ccc(OC)cc3)C(=O)N2CCC2=CCCCC2)cc1` (stereo not given) as listed: activity, negative = inhibition: inactive: 29.4%
`CCN(CCO)c1ncnc2c1sc1nc(C(C)C)c3c(c12)CC(C)(C)OC3` as listed: Potency: inconclusive: 100 µM [inhibitor, partial curve, poor fit]

Later entries

Row | SMILES | Potency | activity, negative = inhibition
21 | NC(=O)COc1cccc(/C=N/NC(=O)c2ccc(-n3cccc3)cc2)c1 | inconclusive: 2.24 µM [inhibitor, full curve, poor fit] | –
22 | COc1cc(/C=C/C(=O)O)cc(S(=O)(=O)NCc2ccc3c(c2)OCO3)c1OC | inconclusive: 56.2 µM [inhibitor, partial curve, poor fit] | –
23 | CCc1nc2ccc(C(=O)NCc3cc(OC)ccc3OC)cc2nc1CC | – | inactive: 31.2%
24 | COc1ccc(-c2ccnc(SCC(=O)c3ccc(OC)c(OC)c3)n2)cc1 | inconclusive: 35.5 µM [inhibitor, partial curve, poor fit] | –
25 | CCOc1ccc(N2CC(c3nc4ccccc4n3CCOc3ccccc3OC)CC2=O)cc1 (stereo not given) | inconclusive: 89.1 µM [inhibitor, single point] | –
26 | O=C(CSCc1ccccc1Cl)NN1C(=O)c2ccccc2C1=O | inconclusive: 112 µM [inhibitor, single point] | –
27 | Cc1cccc(OC(=O)c2ccc3nccnc3c2)c1 | inconclusive: 35.5 µM [inhibitor, single point] | –
28 | Cc1ccc(CN2CCN(/N=C\C=C\c3ccccc3)CC2)cc1 | – | inactive: 58.4%
29 | O=C(CCS(=O)(=O)c1ccc(Br)cc1)Nc1ccc(F)cc1F | – | inactive: -5.68%
30 | O=C(O)COc1ccccc1/C=N/Nc1ccc(S(=O)(=O)Nc2ccc(Cl)cc2)cc1[N+](=O)[O-] | inconclusive: 50.1 µM [inhibitor, partial curve, poor fit] | –
31 | Cc1ccc(C)c(NS(=O)(=O)c2ccc(OCC(=O)N3CCCC3)cc2)c1 | – | inactive: 11.2%
32 | Cc1ccc(Cn2c(C)c3cnn(CC(=O)NCc4ccccc4)c(=O)c3c2C)cc1 | inconclusive: 89.1 µM [inhibitor, single point] | –
33 | CC(C)N(C(=O)COC(=O)[C@@H]1CC(O)CN1S(=O)(=O)c1ccc(C(C)(C)C)cc1)C(C)C (stereo not given in full) | – | inactive: 14%
34 | COc1ccc(-c2nc(CSCC(=O)N3CCN(c4cc(Cl)ccc4C)CC3)c(C)o2)cc1 | inconclusive: 100 µM [inhibitor, single point] | –
35 | O=C(CSc1nnc(-c2ccco2)n1-c1ccccc1)N1CCN(C(=O)c2ccco2)CC1 | inconclusive: 3.16 µM [inhibitor, single point] | –
36 | COc1ccccc1C(CNC(=O)c1ccc(NS(=O)(=O)c2ccc(C(C)=O)cc2)cc1)N1CCCC1 (stereo not given) | active: 31.6 µM | –
37 | O=C1NC(=S)S/C1=C\c1ccc2ccccc2c1 | – | inactive: -6.64%
38 | COc1ccc(Cn2c(=O)n(Cc3ccco3)c(=O)c3oc4ccccc4c32)cc1 | – | inactive: -10.5%
39 | COc1ccc(/C=N/NC(=O)c2nnn(-c3nonc3N)c2-c2cccs2)cc1OC | inconclusive: 20 µM [inhibitor, partial curve, poor fit] | –
40 | COc1cc2c(NC3CCN(C)CC3)nc(N3CCCN(C)CC3)nc2cc1OCCCCCN | inconclusive: 22.4 µM [inhibitor, partial curve, poor fit] | –
